Measured values taken from PMC5811606, “Characterization of ^111In-labeled Glucose-Dependent Insulinotropic Polypeptide as a Radiotracer for Neuroendocrine Tumors” (Scientific Reports, 2018).

How the values were obtained:
[1] = tested on: subcutaneous BHK-GIPR tumors; test: SPECT/CT imaging, BHK-GIPR tumor mice; format: in vivo, BALB/c nude mice
[2] = tested on: subcutaneous NES2Y tumors; test: SPECT/CT imaging, NES2Y tumor mice; format: in vivo, BALB/c nude mice

CC[C@H](C)[C@H](NC(=O)[C@H](CO)NC(=O)[C@H](Cc1ccc(O)cc1)NC(=O)[C@H](CC(=O)O)NC(=O)[C@H](CO)NC(=O)[C@@H](NC(=O)[C@H](Cc1ccccc1)NC(=O)[C@@H](NC(=O)CNC(=O)[C@H](CCC(=O)O)NC(=O)[C@H](C)NC(=O)[C@H](Cc1ccc(O)cc1)NC(C)=O)[C@@H](C)O)[C@@H](C)CC)C(=O)N[C@@H](C)C(=O)N[C@@H](CCSC)C(=O)N[C@@H](CC(=O)O)C(=O)N[C@@H](CCCCN)C(=O)N[C@H](C(=O)N[C@@H](Cc1c[nH]cn1)C(=O)N[C@@H](CCC(N)=O)C(=O)N[C@@H](CCC(N)=O)C(=O)N[C@@H](CC(=O)O)C(=O)N[C@@H](Cc1ccccc1)C(=O)N[C@H](C(=O)N[C@@H](CC(N)=O)C(=O)N[C@@H](Cc1c[nH]c2ccccc12)C(=O)N[C@@H](CC(C)C)C(=O)N[C@@H](CC(C)C)C(=O)N[C@@H](C)C(=O)N[C@@H](CCC(N)=O)C(=O)N[C@@H](CCCCN)C(=O)NCC(=O)N[C@@H](CCCCN)C(=O)N[C@@H](CCCCN)C(=O)N[C@@H](CC(N)=O)C(=O)N[C@@H](CC(=O)O)C(=O)N[C@@H](Cc1c[nH]c2ccccc12)C(=O)N[C@@H](CCCCNC(=O)CN(CCN(CCN(CC(=O)O)CC(=O)O)CC(=O)O)CC(=O)O)C(=O)N[C@@H](Cc1c[nH]cn1)C(=O)N[C@@H](CC(N)=O)C(=O)N[C@H](C(=O)N[C@H](C(=O)N[C@@H](CCC(N)=O)C(=O)O)[C@@H](C)O)[C@@H](C)CC)C(C)C)[C@@H](C)CC [[Lys^37(^111In-DTPA)]N-acetyl-GIP1-42, metal not drawn]
tumor tracer uptake on SPECT/CT with excess unlabeled GIP1-42 ([1]; BHK-GIPR tumor, 4 hours, co-injection 25 µg unlabeled GIP1-42): completely blocked | tumor visualization on SPECT/CT ([1]; BHK-GIPR tumors, 1 and 4 hours after injection, 0.2 µg, n=2/group): clearly visible | tumor visualization on SPECT/CT ([2]; 1 hour after injection, 0.2 µg): clear tumor uptake | tumor tracer uptake on SPECT/CT with excess unlabeled GIP1-42 ([2]; 1 hour, co-injection 25 µg unlabeled GIP1-42): prevented tracer uptake
